PMC12751231

T1: CFAP57 (cilia and flagella associated protein 57), mouse (mouse (endogenous in testis)) (UniProt Q9D180)
T1 sequence: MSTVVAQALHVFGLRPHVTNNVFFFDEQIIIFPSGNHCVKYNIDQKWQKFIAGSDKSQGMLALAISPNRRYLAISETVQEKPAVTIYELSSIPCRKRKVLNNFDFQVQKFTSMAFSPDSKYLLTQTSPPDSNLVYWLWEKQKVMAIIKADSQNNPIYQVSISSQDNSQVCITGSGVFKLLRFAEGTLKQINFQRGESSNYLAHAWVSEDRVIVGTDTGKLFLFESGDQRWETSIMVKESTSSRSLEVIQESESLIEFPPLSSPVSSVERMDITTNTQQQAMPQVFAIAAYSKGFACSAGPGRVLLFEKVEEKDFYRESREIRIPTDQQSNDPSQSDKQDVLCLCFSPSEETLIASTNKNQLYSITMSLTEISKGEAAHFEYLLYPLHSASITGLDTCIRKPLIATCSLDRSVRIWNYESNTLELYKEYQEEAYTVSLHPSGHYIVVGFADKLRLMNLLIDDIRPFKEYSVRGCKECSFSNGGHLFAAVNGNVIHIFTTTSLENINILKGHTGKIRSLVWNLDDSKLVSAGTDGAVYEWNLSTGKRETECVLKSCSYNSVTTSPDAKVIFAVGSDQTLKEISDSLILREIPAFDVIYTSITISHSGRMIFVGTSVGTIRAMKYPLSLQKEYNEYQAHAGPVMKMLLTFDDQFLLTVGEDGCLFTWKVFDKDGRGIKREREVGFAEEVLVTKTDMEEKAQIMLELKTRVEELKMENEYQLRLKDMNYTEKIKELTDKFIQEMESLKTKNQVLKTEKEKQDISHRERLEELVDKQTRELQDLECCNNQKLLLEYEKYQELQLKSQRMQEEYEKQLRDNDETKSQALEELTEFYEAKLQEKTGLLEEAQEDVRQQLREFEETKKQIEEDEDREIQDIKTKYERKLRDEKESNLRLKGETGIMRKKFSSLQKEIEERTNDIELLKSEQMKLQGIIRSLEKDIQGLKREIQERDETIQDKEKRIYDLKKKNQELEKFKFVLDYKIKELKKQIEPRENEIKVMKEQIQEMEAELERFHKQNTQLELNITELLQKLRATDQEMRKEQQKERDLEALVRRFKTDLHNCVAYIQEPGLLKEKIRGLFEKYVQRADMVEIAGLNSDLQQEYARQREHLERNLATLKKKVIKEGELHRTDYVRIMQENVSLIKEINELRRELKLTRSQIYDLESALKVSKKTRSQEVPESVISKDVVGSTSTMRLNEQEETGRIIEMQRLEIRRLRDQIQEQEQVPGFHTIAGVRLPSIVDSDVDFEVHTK


What was measured:
[1] = target: T1, CFAP57 (cilia and flagella associated protein 57), mouse (mouse (endogenous in testis)); experiment: co-IP; WT mouse testis lysate; CFAP57, MYH10 or RAB1 antibody or rabbit IgG overnight at 4 °C, protein G agarose beads 4 h, five washes with lysis buffer; Western blotting with MYH10, RAB1 and CFAP57 antibodies
[2] = target: RAB1, mouse (mouse (endogenous in testis)); experiment: as above

binding [1]	binding [2]	Molecule
binds	–	RAB1, mouse
–	binds	CFAP57 (cilia and flagella associated protein 57), mouse (protein, UniProt Q9D180 1-1249) MSTVVAQALHVFGLRPHVTNNVFFFDEQIIIFPSGNHCVKYNIDQKWQKFIAGSDKSQGMLALAISPNRRYLAISETVQEKPAVTIYELSSIPCRKRKVLNNFDFQVQKFTSMAFSPDSKYLLTQTSPPDSNLVYWLWEKQKVMAIIKADSQNNPIYQVSISSQDNSQVCITGSGVFKLLRFAEGTLKQINFQRGESSNYLAHAWVSEDRVIVGTDTGKLFLFESGDQRWETSIMVKESTSSRSLEVIQESESLIEFPPLSSPVSSVERMDITTNTQQQAMPQVFAIAAYSKGFACSAGPGRVLLFEKVEEKDFYRESREIRIPTDQQSNDPSQSDKQDVLCLCFSPSEETLIASTNKNQLYSITMSLTEISKGEAAHFEYLLYPLHSASITGLDTCIRKPLIATCSLDRSVRIWNYESNTLELYKEYQEEAYTVSLHPSGHYIVVGFADKLRLMNLLIDDIRPFKEYSVRGCKECSFSNGGHLFAAVNGNVIHIFTTTSLENINILKGHTGKIRSLVWNLDDSKLVSAGTDGAVYEWNLSTGKRETECVLKSCSYNSVTTSPDAKVIFAVGSDQTLKEISDSLILREIPAFDVIYTSITISHSGRMIFVGTSVGTIRAMKYPLSLQKEYNEYQAHAGPVMKMLLTFDDQFLLTVGEDGCLFTWKVFDKDGRGIKREREVGFAEEVLVTKTDMEEKAQIMLELKTRVEELKMENEYQLRLKDMNYTEKIKELTDKFIQEMESLKTKNQVLKTEKEKQDISHRERLEELVDKQTRELQDLECCNNQKLLLEYEKYQELQLKSQRMQEEYEKQLRDNDETKSQALEELTEFYEAKLQEKTGLLEEAQEDVRQQLREFEETKKQIEEDEDREIQDIKTKYERKLRDEKESNLRLKGETGIMRKKFSSLQKEIEERTNDIELLKSEQMKLQGIIRSLEKDIQGLKREIQERDETIQDKEKRIYDLKKKNQELEKFKFVLDYKIKELKKQIEPRENEIKVMKEQIQEMEAELERFHKQNTQLELNITELLQKLRATDQEMRKEQQKERDLEALVRRFKTDLHNCVAYIQEPGLLKEKIRGLFEKYVQRADMVEIAGLNSDLQQEYARQREHLERNLATLKKKVIKEGELHRTDYVRIMQENVSLIKEINELRRELKLTRSQIYDLESALKVSKKTRSQEVPESVISKDVVGSTSTMRLNEQEETGRIIEMQRLEIRRLRDQIQEQEQVPGFHTIAGVRLPSIVDSDVDFEVHTK

Results are given in words; binding and its absence hold for the method and conditions named. Binding seen in cells or lysates may run through a third protein. Binding can be weak; no strength is given. Where a sequence is shown, tags or fusion partners need not be part of it.
